Measured values taken from article PMC12778052 (Science Advances, 2026).

Test: general procedure: Fmoc solid-phase peptide synthesis; Rink Amide resin; Oxyma, N,N'-diisopropyl...
Conditions: whole synthesis, scale 0.1 mmol

## NH2-PEG12-(Cys-Pro-Nal-Asp-Cys-Met-hArg-dAsp-Trp-Ser-Thr-Pro-Hyp-Trp-Cys)-TATA–based cyclization
  isolated mass: 30 mg
  isolated yield: 25% yield
